Measured values: PubChem BioAssay AID504467 (National Center for Advancing Translational Sciences (NCATS), 2011)
Hit rate of the full screen: of about 330,000 compounds, about 7,700 (2.3%) were called active. The inconclusive results got no clear call from the source; some entries with a clear call stand among them for comparison. The call rests on the fitted dose curve; in most records, active means well fitted inhibition curve with a large enough effect; inconclusive means small, poorly fitted or top-dose-only effect, or effect the other way; inactive means flat fitted curve, though single readings scatter. Potencies of inconclusive entries are doubtful fits and often do not repeat.

assay: qHTS screen for small molecules that inhibit ELG1-dependent DNA repair in human embryonic kidney (HEK293T) cells expressing luciferase-tagged ELG1; details: HEK293T ELG1-luciferase reporter, luminescence, 16 h, DNA damage induced by 5-fluorouridine; activity change, negative = inhibition: at 46.1 µM (top of the series); further: nearly all actives have a fitted effect of over 55% in size
Procedure, shortened: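 Step one: seed 2,000 cells per well. Step two: pin-transfer compound or DMSO alongside 5-fluorouridine. Step three: incubate 16 hr, 37 °C, 5% CO2. Step four: add ONE-Glo, wait 30 min, read luminescence.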
On the % scale 0 is the no-effect control and ±100 the full control effect; potency means the concentration at half of the fitted maximal effect.

Q: For `COc1cc(/C=C2/C(=N)N3C=CSC3=NC2=O)ccc1OCCCOc1cc(C)ccc1C`, which “activity change, negative = inhibition” value is on record?
A: Its value is inactive: 23.6%.

Q: Which Potency does the source give for `Cc1ccc(NC(=O)N2CCCc3ccccc32)cc1C` here?
A: The Potency was inconclusive: 20.6 µM [activator, partial curve].

Q: With `C=CCc1ccccc1OCC(O)CN1CCN(c2ccc(OC)cc2)CC1` (stereo unspecified) as the compound, how does the “activity change, negative = inhibition” value read?
A: The value was inactive: -16.8%.

Q: Which “activity change, negative = inhibition” value does the source give for `O=C(c1coc2ccc(O)cc12)C1CC1` here?
A: Its value is inactive: 13.5%.

Q: For `O=S(=O)(c1ccc(F)c(Cl)c1)N1CCN(C/C=C/c2ccccc2)CC1`, which Potency is on record?
A: Its Potency is inconclusive: 29.1 µM [inhibitor, single point].

Q: Which Potency does the source give for `Cn1cccc1C(=O)OCC(=O)NC(=O)NC1CCCCC1` here?
A: Its Potency is inconclusive: 25.9 µM [activator, single point].

Q: For `O=C(CSc1nnnn1-c1ccc(F)cc1)Nc1ccc(N2CCOCC2)c(Cl)c1`, which “activity change, negative = inhibition” value is on record?
A: Its value is inactive: -24.7%.

Q: For `Cc1cccc(CSC2=NCCN2C(=O)c2ccc(S(=O)(=O)N(C)C)cc2)c1`, which Potency is on record?
A: Its Potency is inconclusive: 23.1 µM [inhibitor, single point].

Q: Which “activity change, negative = inhibition” value does the source give for `Cc1cc(-c2ccc(NC(=O)[C@@H]3CCCC[C@@H]3C(=O)O)c(C)c2)ccc1NC(=O)[C@@H]1CCCC[C@@H]1C(=O)O` here?
A: Its value is inactive: 14.6%.

Q: With `COc1ccccc1NC(=O)Oc1ccc(NC(=O)c2ccco2)cc1` as the compound, how does the Potency read?
A: Its Potency is inconclusive: 25.9 µM [activator, partial curve, poor fit].

Q: With `CCOc1ccc2nc(N3CCCCCC3)sc2c1` as the compound, how does the Potency read?
A: The Potency was inconclusive: 3.98 µM [activator, partial curve].

Q: Which Potency does the source give for `COc1ccc(OC)c(C(=O)N(C[C@H]2CC[C@@H]([C@@H]3CC[C@H](CO)O3)O2)C(C(=O)NC(C)(C)C)c2ccc(-c3ccccc3)cc2)c1` (stereo partly specified) here?
A: The Potency was inconclusive: 23.1 µM [inhibitor, partial curve, poor fit].

Q: Which Potency does the source give for `COc1cccc(NC(=O)CN(C)C(=O)c2ccc3c(c2)CC(c2ccccc2)OC3=O)c1` (stereo unspecified) here?
A: The Potency was inconclusive: 29.1 µM [inhibitor, single point].

Q: For `CN(c1ccccc1)S(=O)(=O)c1cccc(NC(=O)CN2C(=O)NC3(CCCC3)C2=O)c1`, which “activity change, negative = inhibition” value is on record?
A: Its value is inactive: -14.6%.

Q: With `N#Cc1c(NC(=O)c2cc([N+](=O)[O-])ccc2N2CCOCC2)sc2c1CCCC2` as the compound, how does the Potency read?
A: Its Potency is inconclusive: 20.6 µM [activator, partial curve, poor fit].

Q: Which activity change, negative = inhibition does the source give for `Cc1ccc(C)c(S(=O)(=O)N2CCN(CC(=O)NC(=O)NCc3ccco3)CC2)c1` here?
A: The activity change, negative = inhibition was inconclusive: 16.8% [activator].

Q: With `CCOc1ccc(C(=O)NNC(=O)c2cc(S(=O)(=O)N3CCOCC3)ccc2Cl)cc1` as the compound, how does the Potency read?
A: The Potency was inconclusive: 18.3 µM [activator, partial curve, poor fit].

Q: With `O=C(CN1C(=O)c2ccccc2S1(=O)=O)NCCSCc1ccccc1Cl` as the compound, how does the Potency read?
A: Its Potency is inconclusive: 32.6 µM [activator, single point].

Q: With `O=C(Nc1nccs1)c1cc(N2CCOCC2)nc2ccccc12` as the compound, how does the Potency read?
A: Its Potency is active: 18.4 µM.

Q: For `O=C(NC12CC3CC(CC(C3)C1)C2)c1ccc(-c2ccccc2Cl)o1`, which Potency is on record?
A: The Potency was inconclusive: 2.91 µM [activator, partial curve, poor fit].

Q: For `Cc1ccc(C(C(=O)NC2CCCC2)N(Cc2ccco2)C(=O)CCC(=O)Nc2cc(C)on2)cc1` (stereo unspecified), which Potency is on record?
A: The Potency was inconclusive: 32.6 µM [inhibitor, single point].

Q: Which Potency does the source give for `O=C(O)c1nn(CCOc2c(Cl)cccc2Cl)c(=O)c2ccccc12` here?
A: Its Potency is inconclusive: 0.231 µM [inhibitor, single point].

Q: For `N#CCC(=O)N1CCCCCC1`, which Potency is on record?
A: Its Potency is inconclusive: 1.03 µM [activator, full curve, poor fit].

Q: For `Cc1cccc(-c2nc3sc(C)cc3c(=O)o2)c1`, which Potency is on record?
A: Its Potency is inconclusive: 29.1 µM [activator, single point].

Q: For `O=C(c1cccc(S(=O)(=O)Nc2ccc(Br)cc2)c1)N1CCC1`, which “activity change, negative = inhibition” value is on record?
A: The value was inactive: 11.5%.

Q: With `Cc1ccccc1C(=O)NC(=S)N(Cc1ccccc1)c1ccccn1` as the compound, how does the Potency read?
A: Its Potency is inconclusive: 4.11 µM [activator, partial curve, poor fit].

Q: Which Potency does the source give for `Cc1ccc(-n2c(SCC(=O)N3CCOCC3)nnc2-c2cccnc2)cc1` here?
A: Its Potency is inconclusive: 25.9 µM [activator, single point].

Q: For `O=C(CCc1nnc2n(Cc3ccc(F)cc3)c(=O)c3ccccc3n12)NCCCN1CCOCC1`, which Potency is on record?
A: The Potency was inconclusive: 29.1 µM [activator, partial curve, poor fit].

Q: With `COc1cccc(N2CCN(c3ncccn3)CC2)c1` as the compound, how does the Potency read?
A: Its Potency is inconclusive: 14.6 µM [activator, partial curve].

Q: Which “activity change, negative = inhibition” value does the source give for `COC(=O)[C@@]12CCCCN1[C@H](c1ccc(-c3ccc4c(c3)OCO4)c(OC)c1)[C@@H]1C(=O)N(C)C(=O)[C@@H]12` here?
A: Its value is inactive: -14.8%.

Q: Which Potency does the source give for `Nc1ccc(C(=O)N/N=C/c2ccccc2)cc1` here?
A: The Potency was inconclusive: 11.2 µM [activator, partial curve, poor fit].

Q: With `COc1ccc(NC(=O)c2cccc(S(=O)(=O)N3CCc4ccccc43)c2)cn1` as the compound, how does the Potency read?
A: The Potency was active: 8.2 µM.

Q: Which Potency does the source give for `Cc1nn(Cc2ccccc2Cl)c(Cl)c1C(=O)NCCc1ccccc1` here?
A: The Potency was inconclusive: 10.3 µM [activator, partial curve].

Q: With `Cc1ccc(Cl)cc1N1CCN(C(=O)c2cc3c(=O)[nH]c4ccccc4c3n2C)CC1` as the compound, how does the Potency read?
A: Its Potency is inconclusive: 23.1 µM [inhibitor, single point].

Q: Which Potency does the source give for `O=C(CCNC(=O)c1ccccc1)NCc1ccccc1F` here?
A: The Potency was inconclusive: 14.6 µM [activator, partial curve, poor fit].

Q: For `CCOC(=O)c1nc(C)n(-c2ccc(Cl)cc2)n1`, which Potency is on record?
A: The Potency was inconclusive: 1.64 µM [activator, partial curve, poor fit].

Q: For `Cc1nn(Cc2ccc(Cl)cc2)c(C)c1NC(=O)c1noc2c1CCCCC2`, which Potency is on record?
A: Its Potency is active: 23.1 µM.

Q: Which Potency does the source give for `COC(=O)CSc1nc2cc3c(cc2cc1C#N)OCO3` here?
A: The Potency was inconclusive: 1.64 µM [activator, full curve].

Q: Which “activity change, negative = inhibition” value does the source give for `CN1c2ccccc2C(C)(C)C12CC(c1ccc(S(=O)(=O)N3CCCCC3)cc1)=NO2` (stereo unspecified) here?
A: Its value is inactive: 5.29%.

Q: For `O=c1[nH][nH]c(-c2ccccc2O)c1C(C[N+](=O)[O-])c1ccc(Br)cc1` (stereo unspecified), which Potency is on record?
A: Its Potency is inconclusive: 29.1 µM [inhibitor, single point].

Q: Which Potency does the source give for `CC(=O)Nc1cccc(-c2cn3ccccc3n2)c1` here?
A: Its Potency is inconclusive: 16.4 µM [activator, single point].

Q: For `O=C(Nc1ccc(N2CCOCC2)cc1)c1cccc(S(=O)(=O)N2CCCC2)c1`, which “activity change, negative = inhibition” value is on record?
A: Its value is inactive: -16.1%.

Q: With `CCn1c2ccccc2c2cc(CN3CCN(Cc4cc(OC)ccc4O)CC3)ccc21` as the compound, how does the Potency read?
A: The Potency was inconclusive: 18.3 µM [inhibitor, single point].

Q: With `COc1cccc(NC(=O)CN(C)C(=O)c2c(-c3ccccc3)noc2C)c1` as the compound, how does the Potency read?
A: Its Potency is inconclusive: 16.4 µM [inhibitor, partial curve].

Q: For `CCOC(=O)c1cc(-c2ccccc2)nc2ccc(C)cc12`, which “activity change, negative = inhibition” value is on record?
A: Its value is inactive: -17.6%.

Q: With `Cc1ccc(S(=O)(=O)N2CCC(=O)N(C(COCc3cccc(C(F)(F)F)c3)C(C)C)CC2)cc1` (stereo unspecified) as the compound, how does the “activity change, negative = inhibition” value read?
A: Its value is inactive: -27.9%.

Q: For `CC(NC(=O)Nc1ccc(Cl)c(Cl)c1)C(c1ccccc1)N1CCOCC1` (stereo unspecified), which Potency is on record?
A: Its Potency is inconclusive: 29.1 µM [inhibitor, single point].

Q: For `O=C(O)CCCC(=O)OCCc1cc2ccccc2c(=O)o1`, which Potency is on record?
A: Its Potency is inconclusive: 16.4 µM [activator, partial curve, poor fit].

Q: For `Cc1sc(NC(=O)Cn2[nH]c(=O)c3ccccc3c2=O)nc1-c1ccccc1`, which Potency is on record?
A: The Potency was inconclusive: 29.1 µM [inhibitor, single point].

Q: Which “activity change, negative = inhibition” value does the source give for `N#CC1=C(N)NC(=S)C(C(N)=O)C1c1ccc(Cl)cc1Cl` (stereo unspecified) here?
A: Its value is inactive: -3.2%.

Q: For `O=C(CCl)Nc1cccc(S(=O)(=O)NC2=NCCC2)c1`, which Potency is on record?
A: Its Potency is inconclusive: 16.4 µM [inhibitor, partial curve].

Q: With `C[C@H](CO)N1C[C@H](C)[C@@H](CN(C)S(=O)(=O)c2ccccc2)Oc2c(NC(=O)Nc3ccc4c(c3)OCO4)cccc2C1=O` as the compound, how does the Potency read?
A: The Potency was inconclusive: 23.1 µM [inhibitor, single point].

Q: Which “activity change, negative = inhibition” value does the source give for `C#Cc1cccc(C(=O)N2CCCC(C(=O)c3ccc(OC)cc3C)C2)c1` (stereo unspecified) here?
A: Its value is inactive: -4.46%.

Q: For `CC(=O)c1ccccc1NCC(=O)Nc1ccc(C)cc1`, which “activity change, negative = inhibition” value is on record?
A: The value was inactive: 11.6%.

Q: For `O=C(C1CCCN(S(=O)(=O)c2cccc3cccnc23)C1)N1CCN(c2ccccc2F)CC1` (stereo unspecified), which Potency is on record?
A: Its Potency is inconclusive: 18.4 µM [inhibitor, single point].

Q: Which “activity change, negative = inhibition” value does the source give for `CCCCn1c(N)c(N(CCOC)C(=O)COC(=O)COc2cc(C)c(Cl)cc2C(C)C)c(=O)[nH]c1=O` here?
A: The value was inactive: 12.8%.

Q: For `CCOC(=O)c1c(C)[nH]c(C(=O)OCC(=O)N2CCN(S(=O)(=O)c3ccc(C)cc3C)CC2)c1C`, which Potency is on record?
A: Its Potency is active: 12.6 µM.

Q: For `COc1ccc(CC(=O)Nc2cccc(-c3ccc4nncn4n3)c2)cc1OC`, which Potency is on record?
A: Its Potency is active: 7.3 µM.

Q: For `COCC(C)NC(=O)COCc1cc(-c2ccc3c(c2)OCO3)on1` (stereo unspecified), which “activity change, negative = inhibition” value is on record?
A: Its value is inactive: 11.8%.

Q: For `CCOC(=O)C1CCN(c2cc(C)nc3cc(-c4cccc(F)c4)nn23)CC1`, which Potency is on record?
A: The Potency was inconclusive: 29.1 µM [activator, single point].

Q: For `Cc1onc(-c2c(F)cccc2Cl)c1C(=O)Nc1nccs1`, which Potency is on record?
A: The Potency was inconclusive: 18.3 µM [inhibitor, single point].

Q: With `CCS(=O)(=O)n1nc(-c2ccc(Cl)cc2)nc1SC` as the compound, how does the Potency read?
A: The Potency was inconclusive: 16.4 µM [activator, partial curve].

Q: With `O=C(Nc1ccccc1F)c1cc2c(s1)-c1ccccc1S(=O)(=O)C2` as the compound, how does the Potency read?
A: Its Potency is inconclusive: 8.2 µM [activator, partial curve, poor fit].

Q: Which Potency does the source give for `Cc1cnc(NC(=O)CSc2nnc(N)s2)s1` here?
A: Its Potency is inconclusive: 29.1 µM [activator, single point].

Q: For `CCN(CC)S(=O)(=O)c1ccc(C)c(NC(=O)CSc2nc3ccccc3[nH]2)c1`, which Potency is on record?
A: The Potency was inconclusive: 25.9 µM [inhibitor, partial curve, poor fit].

Q: For `O=C(Nn1cnc2ccccc2c1=O)c1ccc(F)cc1Cl`, which Potency is on record?
A: Its Potency is inconclusive: 23.1 µM [activator, single point].
